Small differences around the control level are noise.
Key:
Test in all cases: normalised response (% of control), CellTox Green; higher = less cell death (100 = DMSO, 0 = benzethonium chloride kill control)
Settings in all cases: incubation time: 72 h
MCF-10A [1] = test system: MCF-10A
Method: (§1)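 DSRT, 72 h incubation, CellTox Green / CellTiter-Glo readout. Signal is normalised to DMSO and benzethonium chloride controls. Value is the normalised response at dose 2.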

BT-474 [2] = test system: BT-474
Method: as §1

HCC1599 [3] = test system: HCC1599
Method: as §1

CAL-85-1 [4] = test system: CAL-85-1
Method: as §1

HCC1143 [5] = test system: HCC1143
Method: as §1

CAL-51 [6] = test system: CAL-51
Method: as §1

BT-549 [7] = test system: BT-549
Method: as §1

MDA-MB-436 [8] = test system: MDA-MB-436
Method: as §1

CAL-120 [9] = test system: CAL-120
Method: as §1

MDA-MB-231 [10] = test system: MDA-MB-231
Method: as §1

DU-4475 [11] = test system: DU-4475
Method: as §1

HCC1937 = test system: HCC1937
Method: as §1

MDA-MB-453 [12] = test system: MDA-MB-453
Method: as §1

MFM-223 [13] = test system: MFM-223
Method: as §1

Hs578T [14] = test system: Hs578T
Method: as §1

HDQ-P1 = test system: HDQ-P1
Method: as §1

CAL-148 [15] = test system: CAL-148
Method: as §1

MCF-10A [16] = test system: MCF-10A; remark: listed apart in the source
Method: (§2)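 DSRT, 72 h incubation, CellTox Green / CellTiter-Glo readout. Signal is normalised to DMSO and benzethonium chloride controls. Value is the normalised response at the lowest tested concentration.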

MDA-MB-468 = test system: MDA-MB-468
Method: as §2

BT-474 [17] = test system: BT-474; remark: listed apart in the source
Method: as §2

HCC1599 [18] = test system: HCC1599; remark: listed apart in the source
Method: as §2

CAL-85-1 [19] = test system: CAL-85-1; remark: listed apart in the source
Method: as §2

HCC1143 [20] = test system: HCC1143; remark: listed apart in the source
Method: as §2

BT-549 [21] = test system: BT-549; remark: listed apart in the source
Method: as §2

CAL-120 [22] = test system: CAL-120; remark: listed apart in the source
Method: as §2

DU-4475 [23] = test system: DU-4475; remark: listed apart in the source
Method: as §2

CAL-148 [24] = test system: CAL-148; remark: listed apart in the source
Method: as §2

MDA-MB-453 [25] = test system: MDA-MB-453; remark: listed apart in the source
Method: as §2

MFM-223 [26] = test system: MFM-223; remark: listed apart in the source
Method: as §2

CAL-51 [27] = test system: CAL-51; remark: listed apart in the source
Method: as §2

MDA-MB-436 [28] = test system: MDA-MB-436; remark: listed apart in the source
Method: as §2

MDA-MB-231 [29] = test system: MDA-MB-231; remark: listed apart in the source
Method: as §2

Hs578T [30] = test system: Hs578T; remark: listed apart in the source
Method: as §2

Compound | normalised response (MCF-10A [1]) | normalised response (BT-474 [2]) | normalised response (HCC1599 [3]) | normalised response (CAL-85-1 [4]) | normalised response (HCC1143 [5]) | normalised response (CAL-51 [6]) | normalised response (BT-549 [7]) | normalised response (MDA-MB-436 [8]) | normalised response (CAL-120 [9]) | normalised response (MDA-MB-231 [10]) | normalised response (DU-4475 [11]) | normalised response (HCC1937) | normalised response (MDA-MB-453 [12]) | normalised response (MFM-223 [13]) | normalised response (Hs578T [14]) | normalised response (HDQ-P1) | normalised response (CAL-148 [15]) | normalised response (MCF-10A [16]) | normalised response (MDA-MB-468) | normalised response (BT-474 [17]) | normalised response (HCC1599 [18]) | normalised response (CAL-85-1 [19]) | normalised response (HCC1143 [20]) | normalised response (BT-549 [21]) | normalised response (CAL-120 [22]) | normalised response (DU-4475 [23]) | normalised response (CAL-148 [24]) | normalised response (MDA-MB-453 [25]) | normalised response (MFM-223 [26]) | normalised response (CAL-51 [27]) | normalised response (MDA-MB-436 [28]) | normalised response (MDA-MB-231 [29]) | normalised response (Hs578T [30])
CC[C@H](CC#N)OC(=O)N[C@@H](C)c1cccc(NC(=O)Nc2ccc(-c3cnco3)c(OC)c2)c1 [AVN944] (10 nM) | 108% | 102% | 99.3% | 95% | 76.3% | 104% | 99.5% | 104% | 99.7% | 101% | 95.6% | 109% | 97.7% | 81.7% | 65% |  |  |  |  |  |  |  |  |  |  |  |  |  |  |  |  |  | 
C[C@]12CC[C@H](O)CC1=CC[C@@H]1[C@@H]2CC[C@]2(C)C(c3cccnc3)=CC[C@@H]12 [Abiraterone] (5 nM) | 110% | 101% | 123% | 95.7% | 127% | 109% | 109% | 110% | 106% | 110% | 112% | 103% | 106% | 81.9% | 99.8% | 125% | 105% |  |  |  |  |  |  |  |  |  |  |  |  |  |  |  | 
CCOC(=O)CCNc1cc(N2CCc3ccccc3CC2)nc(-c2ccccn2)n1 [GSK-J4] (100 nM) | 79% | 103% | 99.9% | 100% | 110% | 106% | 95.9% | 87.4% | 101% | 107% | 93.7% | 95% |  | 99.7% | 125% | 117% | 103% |  |  |  |  |  |  |  |  |  |  |  |  |  |  |  | 
CC1(C)NC(=O)N(c2ccc([N+](=O)[O-])c(C(F)(F)F)c2)C1=O [Nilutamide] (10 nM) | 103% | 100% | 113% | 96.3% | 114% | 116% | 90.7% | 110% | 104% | 112% | 106% | 103% | 103% | 74.5% | 110% | 91.7% | 105% |  |  |  |  |  |  |  |  |  |  |  |  |  |  |  | 
CNC(=O)c1ccc(N2C(=S)N(c3ccc(C#N)c(C(F)(F)F)c3)C(=O)C23CCC3)cc1F [RD162] (10 nM) | 80.3% | 102% | 104% | 107% | 112% | 103% | 102% | 103% | 102% | 111% | 100% | 107% | 90.1% | 93.4% | 127% | 110% | 102% |  |  |  |  |  |  |  |  |  |  |  |  |  |  |  | 
N#CC[C@H](C1CCCC1)n1cc(-c2ncnc3[nH]ccc23)cn1 [Ruxolitinib] (10 nM) | 98.7% | 87.2% | 96.7% | 96.6% | 109% | 100% | 83.1% | 90.4% | 99.6% | 106% | 97.4% | 66.5% | 98.1% | 86% |  | 86% | 97.9% |  |  |  |  |  |  |  |  |  |  |  |  |  |  |  | 
COc1cc([C@@H]2c3cc4c(cc3[C@@H](O[C@@H]3O[C@@H]5CO[C@@H](c6cccs6)O[C@H]5[C@H](O)[C@H]3O)[C@H]3COC(=O)[C@H]23)OCO4)cc(OC)c1O [Teniposide] (1 nM) |  |  |  |  |  |  |  |  |  |  |  |  |  |  |  |  |  | 97.8% | 78.9% | 99.9% | 111% | 101% | 83.7% | 96.4% | 102% | 105% | 95.3% | 93.8% | 106% | 105% | 94.8% | 117% | 69.9%
